Results as given in article PMC3877894, “Cytotoxic, Cytostatic and HIV-1 PR Inhibitory Activities of the Soft Coral Litophyton arboreum” (Marine Drugs, 2013).
Starred links: 1 amine or outer side, 2 acyl side, 3 side chain; linkers in the order of their positions; H or OH if unused. Positions of bridges follow the written chain, without caps; N, C: chain ends. Non-standard residues stand in square brackets, D forms with d. Residues, ends and D or L forms follow the SMILES beside them. Chains are numbered I, II in the order given. Actinocin(9to1) = Cc1c2oc3c(C)ccc(C(=O)[*:1])c3nc-2c(C(=O)[*:2])c(N)c1=O; NMeV = CN[C@H](C(=O)O)C(C)C; Sar = CNCC(=O)O

Columns and labels:
HeLa cells = assay: XTT cytotoxicity assay in HeLa cells; conditions: IC50 in Vero cell line / IC50 in HeLa
Experimental: (§1) HeLa, U937, and Vero cell lines were maintained in culture flasks containing Eagle’s Minimum Essential Medium supplemented with 10% heat-inactivated FBS and 1% antibiotics (100 U/mL penicillin, 100 μg/mL streptomycin, and 250 μg/mL fungizone). The cells were grown at 37 °C in a humidified incubator set at 5% CO2. Cells were subcultured after they formed a monolayer on the flask. The cells were detached by treating them with trypsin-EDTA (0.25% trypsin containing 0.01% EDTA) for 10 minutes and then by adding complete medium to inhibit the reaction. Cytotoxicity was measured by the XTT method using the Cell Proliferation Kit II. The method described by Zheng et al. was used to perform the assay. Cells were seeded (100 μL) in a 96-well microtiter plate (concentration 1 × 10^5 cells/mL). The plate was then incubated for 24 h at 37 °C and 5% CO2 to allow the cells to attach to the bottom of the wells. The compounds were each prepared to a stock solution of 20 mg/mL and added to the microtiter plate. Serial dilutions were made to range from a concentration of 100 μg/mL–0.7 μg/mL for each compound. The microtiter plate was incubated for a further 72 h. […] After the incubation the absorbance of the color complex was read at 490 nm with a reference wavelength set at 690 nm. […] The results were analyzed using the GraphPad Prism 4 program.

U937 cells = assay: XTT cytotoxicity assay in U937 cells; conditions: IC50 in Vero cell line / IC50 in U937
Experimental: as §1

Compound: Cc1c2oc3c(C)ccc(C(=O)N[C@@H]4C(=O)N[C@H](C(C)C)C(=O)N5CCC[C@H]5C(=O)N(C)CC(=O)N(C)[C@@H](C(C)C)C(=O)O[C@@H]4C)c3nc-2c(C(=O)N[C@@H]2C(=O)N[C@H](C(C)C)C(=O)N3CCC[C@H]3C(=O)N(C)CC(=O)N(C)[C@@H](C(C)C)C(=O)O[C@@H]2C)c(N)c1=O [Actinomycin D, reference compound] (I: T[dV]P[Sar][NMeV] / II: T[dV]P[Sar][NMeV]; ester I:1-I:C, II:1-II:C; linker I:N-II:N via Actinocin(9to1))
- SI Values HeLa (HeLa cells): 1.7
- SI Values U937 (U937 cells): 4.72

Compound: CCCCCCCCCCCCCC=CCCC=CC(O)C(CO)NC(=O)CCCCCCCCCCC (stereo not drawn) [Compound 8, erythro-N-dodecanoyl-docosasphinga-(4E,8E)-dienine]
- SI Values HeLa (HeLa cells): 2.6
